Assay results published in PMC12263510.
No constants are given. Whether binding was seen depends on the method and setting. In cells and extracts the contact can be indirect. Some entries that bind do so weakly or less than the wild type.

The chains behind the UniProt entries cited, without tags or fusion partners.
UniProt P40763: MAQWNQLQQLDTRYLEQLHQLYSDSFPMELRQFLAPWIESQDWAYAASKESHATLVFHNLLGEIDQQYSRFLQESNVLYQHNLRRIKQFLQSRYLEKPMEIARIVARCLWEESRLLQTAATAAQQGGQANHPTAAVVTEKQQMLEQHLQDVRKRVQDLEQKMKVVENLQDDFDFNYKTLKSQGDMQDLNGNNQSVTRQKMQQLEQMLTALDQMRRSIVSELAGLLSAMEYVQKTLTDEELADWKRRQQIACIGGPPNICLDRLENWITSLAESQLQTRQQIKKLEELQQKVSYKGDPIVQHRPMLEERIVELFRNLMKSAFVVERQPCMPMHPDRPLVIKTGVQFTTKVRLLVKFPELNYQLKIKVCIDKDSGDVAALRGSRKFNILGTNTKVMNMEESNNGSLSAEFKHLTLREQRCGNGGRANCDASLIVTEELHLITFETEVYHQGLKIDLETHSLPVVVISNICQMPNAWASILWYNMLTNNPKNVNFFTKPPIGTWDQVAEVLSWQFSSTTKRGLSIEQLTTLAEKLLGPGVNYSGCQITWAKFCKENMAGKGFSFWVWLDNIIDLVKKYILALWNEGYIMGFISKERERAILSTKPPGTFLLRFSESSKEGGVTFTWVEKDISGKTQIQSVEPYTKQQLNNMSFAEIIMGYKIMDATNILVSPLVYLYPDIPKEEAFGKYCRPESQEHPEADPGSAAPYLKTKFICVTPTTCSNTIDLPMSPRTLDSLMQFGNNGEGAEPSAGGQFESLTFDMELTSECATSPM
UniProt Q9NRC8: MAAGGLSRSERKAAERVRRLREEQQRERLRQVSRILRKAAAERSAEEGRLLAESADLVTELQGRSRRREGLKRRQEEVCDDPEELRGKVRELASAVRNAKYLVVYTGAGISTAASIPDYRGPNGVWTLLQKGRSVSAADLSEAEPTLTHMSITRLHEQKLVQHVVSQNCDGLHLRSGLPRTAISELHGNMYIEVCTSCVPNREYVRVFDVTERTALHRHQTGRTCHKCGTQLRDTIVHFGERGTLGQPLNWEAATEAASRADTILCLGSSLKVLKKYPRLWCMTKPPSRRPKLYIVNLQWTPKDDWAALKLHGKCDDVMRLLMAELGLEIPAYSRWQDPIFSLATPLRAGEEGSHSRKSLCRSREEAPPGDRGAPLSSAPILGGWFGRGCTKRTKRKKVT

Columns and labels:
[1] = target: Signal Transducer and Activator of Transcription 3 (STAT3), endogenous (human (endogenous in HEK293T)) (UniProt P40763); assay: co-IP; endogenous proteins; HEK293T lysate incubated with anti-SIRT7, anti-STAT3 or isotype control IgG overnight at 4°C, Protein A/G magnetic beads 2 h at 4°C, immunoblotting
[2] = target: Signal Transducer and Activator of Transcription 3 (STAT3), exogenous, tagged (UniProt P40763); assay: co-IP; exogenous proteins; HEK293T lysate incubated with anti-Flag, anti-HA or isotype control IgG overnight at 4°C, Protein A/G magnetic beads 2 h at 4°C, immunoblotting

Row | Substance | binding [1] | binding [2]
1 | Sirtuin 7 (SIRT7), endogenous (from UniProt Q9NRC8 1-400) | binds | 
2 | Sirtuin 7 (SIRT7), exogenous, tagged (from UniProt Q9NRC8 1-400) |  | binds
